Measurements as given in patent publication US20250171543A1 (TAIZHOU ENZE MEDICAL CENTER GROUP, published 2025).
No constants are given. Whether binding was seen depends on the method and setting. Some entries that bind do so weakly or less than the wild type.

Target: HLA-G molecule (human) (UniProt P17693)
Test: immunoblot of lysates of gastric cancer tissues of 62 patients

binding: binds
B1: monoclonal antibody YWHG-1 against HLA-G molecule (antibody, V domains shown)
VH: QLQESGTVLVRPGASVKLSCKASGYIFTSYWINWVKQRPGQGLEWIGNIYPSDSYTNFNQKFEDKATLTVDTSSSTAYMQFSSPTSEDSAVYYCTRFGYPFDYWGQGTTLTVSS
VL: DIVITQDELSLTVSLGDQASISCRTSQSFVHSNGNIYLEWFLQKPGQSPKLLIYKVSSRFSGVPDRFSGSGSGTDFTLKISRVEAEDLGIYYCFQGSHVPPTFGGGTKLEIK
notes: FITC-labeled in the flow cytometry assay; also called hybridoma CCTCC NO: 202120
